According to the supplement of paper PMC10849652:
The list shows a part of the results. Residues, ends and D or L forms follow the SMILES beside them. *: point of attachment. Cbz = O=C(OCc1ccccc1)*

Chains of the proteins cited; added tags and fusions are not shown. Lines headed by an entry give the natural chain unless they say otherwise; changes in a name come on top.
UniProt Q9UI12, whole entry, looked up: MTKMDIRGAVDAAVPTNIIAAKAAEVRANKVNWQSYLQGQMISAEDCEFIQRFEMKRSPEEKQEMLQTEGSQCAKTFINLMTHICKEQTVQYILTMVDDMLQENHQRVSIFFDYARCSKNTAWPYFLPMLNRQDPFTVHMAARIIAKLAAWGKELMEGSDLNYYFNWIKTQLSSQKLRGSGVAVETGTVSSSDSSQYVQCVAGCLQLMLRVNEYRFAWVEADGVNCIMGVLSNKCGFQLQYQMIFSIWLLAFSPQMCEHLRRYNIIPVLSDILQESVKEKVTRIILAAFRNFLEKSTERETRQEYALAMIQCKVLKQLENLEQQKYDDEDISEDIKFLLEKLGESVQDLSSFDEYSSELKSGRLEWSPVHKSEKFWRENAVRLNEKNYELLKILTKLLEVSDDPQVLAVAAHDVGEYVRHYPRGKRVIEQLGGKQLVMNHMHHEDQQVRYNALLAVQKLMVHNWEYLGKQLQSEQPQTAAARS
UniProt P27449, whole entry, looked up: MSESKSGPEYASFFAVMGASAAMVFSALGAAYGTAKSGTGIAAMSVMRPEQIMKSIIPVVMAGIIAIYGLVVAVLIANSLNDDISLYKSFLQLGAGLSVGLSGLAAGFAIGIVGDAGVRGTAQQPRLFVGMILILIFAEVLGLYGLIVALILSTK
UniProt Q9H0Y0: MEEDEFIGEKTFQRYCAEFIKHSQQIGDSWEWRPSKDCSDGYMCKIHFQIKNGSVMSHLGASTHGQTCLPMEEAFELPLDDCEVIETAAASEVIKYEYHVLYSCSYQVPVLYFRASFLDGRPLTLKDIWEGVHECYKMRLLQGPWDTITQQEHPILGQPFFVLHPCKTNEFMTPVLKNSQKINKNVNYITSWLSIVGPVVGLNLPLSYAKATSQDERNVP
UniProt Q01814: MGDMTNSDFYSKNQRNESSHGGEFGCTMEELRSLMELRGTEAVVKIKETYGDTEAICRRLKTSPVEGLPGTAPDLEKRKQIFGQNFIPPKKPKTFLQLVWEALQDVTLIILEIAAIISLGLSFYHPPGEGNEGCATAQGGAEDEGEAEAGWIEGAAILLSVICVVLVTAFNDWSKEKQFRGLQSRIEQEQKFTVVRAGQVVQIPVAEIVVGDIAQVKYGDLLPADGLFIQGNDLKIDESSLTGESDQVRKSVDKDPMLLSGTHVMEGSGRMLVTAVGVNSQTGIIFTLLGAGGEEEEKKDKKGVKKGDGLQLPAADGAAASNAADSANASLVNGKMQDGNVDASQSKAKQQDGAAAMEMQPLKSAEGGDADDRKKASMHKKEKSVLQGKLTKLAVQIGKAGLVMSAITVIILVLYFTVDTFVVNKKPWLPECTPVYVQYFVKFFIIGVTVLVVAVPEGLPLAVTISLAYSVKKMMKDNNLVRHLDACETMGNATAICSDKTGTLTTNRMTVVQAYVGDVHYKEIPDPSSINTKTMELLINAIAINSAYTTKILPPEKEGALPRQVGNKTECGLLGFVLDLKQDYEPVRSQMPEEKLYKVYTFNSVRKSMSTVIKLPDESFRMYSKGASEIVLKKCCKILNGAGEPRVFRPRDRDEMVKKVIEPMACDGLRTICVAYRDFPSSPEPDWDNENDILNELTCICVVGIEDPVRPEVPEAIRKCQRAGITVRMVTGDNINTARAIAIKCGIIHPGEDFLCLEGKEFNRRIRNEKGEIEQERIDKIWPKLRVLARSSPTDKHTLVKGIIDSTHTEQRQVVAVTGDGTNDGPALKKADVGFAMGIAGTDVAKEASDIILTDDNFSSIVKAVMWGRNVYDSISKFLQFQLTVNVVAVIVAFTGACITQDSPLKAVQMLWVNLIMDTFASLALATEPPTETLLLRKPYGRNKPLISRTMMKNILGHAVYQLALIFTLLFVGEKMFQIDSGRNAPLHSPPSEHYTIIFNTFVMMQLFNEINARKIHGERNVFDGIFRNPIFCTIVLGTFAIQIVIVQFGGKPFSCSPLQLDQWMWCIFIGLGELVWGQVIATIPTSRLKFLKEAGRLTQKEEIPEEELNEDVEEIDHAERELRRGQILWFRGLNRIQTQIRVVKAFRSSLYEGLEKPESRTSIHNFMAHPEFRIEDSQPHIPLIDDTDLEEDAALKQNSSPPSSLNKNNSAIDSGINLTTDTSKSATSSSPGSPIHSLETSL
UniProt P40617: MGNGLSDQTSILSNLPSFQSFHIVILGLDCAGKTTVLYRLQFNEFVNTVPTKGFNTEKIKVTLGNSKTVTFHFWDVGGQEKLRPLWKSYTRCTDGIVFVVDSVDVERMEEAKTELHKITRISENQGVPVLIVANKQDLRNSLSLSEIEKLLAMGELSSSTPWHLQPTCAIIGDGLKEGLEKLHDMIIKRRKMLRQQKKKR
UniProt Q9UII2: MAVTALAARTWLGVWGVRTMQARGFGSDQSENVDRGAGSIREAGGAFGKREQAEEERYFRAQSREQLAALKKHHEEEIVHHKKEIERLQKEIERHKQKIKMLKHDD
UniProt O95260: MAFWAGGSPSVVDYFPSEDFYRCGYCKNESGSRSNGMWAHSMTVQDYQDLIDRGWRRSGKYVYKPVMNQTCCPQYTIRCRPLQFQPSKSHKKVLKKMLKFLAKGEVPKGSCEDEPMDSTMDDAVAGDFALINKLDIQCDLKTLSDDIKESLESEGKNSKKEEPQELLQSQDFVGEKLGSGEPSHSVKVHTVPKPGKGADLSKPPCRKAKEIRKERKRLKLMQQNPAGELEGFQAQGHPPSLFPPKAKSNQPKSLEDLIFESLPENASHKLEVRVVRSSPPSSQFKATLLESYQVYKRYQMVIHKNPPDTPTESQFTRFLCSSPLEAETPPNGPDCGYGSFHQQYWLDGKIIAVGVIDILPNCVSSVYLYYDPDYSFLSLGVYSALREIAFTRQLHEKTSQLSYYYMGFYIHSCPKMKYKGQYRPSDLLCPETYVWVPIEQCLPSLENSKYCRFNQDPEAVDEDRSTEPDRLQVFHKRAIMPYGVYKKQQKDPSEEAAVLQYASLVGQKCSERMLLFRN
UniProt Q6P4H8: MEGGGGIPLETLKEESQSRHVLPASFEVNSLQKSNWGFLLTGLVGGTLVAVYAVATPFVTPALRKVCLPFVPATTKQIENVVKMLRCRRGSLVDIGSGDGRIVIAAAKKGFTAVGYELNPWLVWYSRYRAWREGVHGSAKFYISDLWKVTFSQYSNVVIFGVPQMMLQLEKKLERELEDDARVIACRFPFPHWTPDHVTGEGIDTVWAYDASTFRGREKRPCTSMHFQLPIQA
UniProt Q6VMQ6: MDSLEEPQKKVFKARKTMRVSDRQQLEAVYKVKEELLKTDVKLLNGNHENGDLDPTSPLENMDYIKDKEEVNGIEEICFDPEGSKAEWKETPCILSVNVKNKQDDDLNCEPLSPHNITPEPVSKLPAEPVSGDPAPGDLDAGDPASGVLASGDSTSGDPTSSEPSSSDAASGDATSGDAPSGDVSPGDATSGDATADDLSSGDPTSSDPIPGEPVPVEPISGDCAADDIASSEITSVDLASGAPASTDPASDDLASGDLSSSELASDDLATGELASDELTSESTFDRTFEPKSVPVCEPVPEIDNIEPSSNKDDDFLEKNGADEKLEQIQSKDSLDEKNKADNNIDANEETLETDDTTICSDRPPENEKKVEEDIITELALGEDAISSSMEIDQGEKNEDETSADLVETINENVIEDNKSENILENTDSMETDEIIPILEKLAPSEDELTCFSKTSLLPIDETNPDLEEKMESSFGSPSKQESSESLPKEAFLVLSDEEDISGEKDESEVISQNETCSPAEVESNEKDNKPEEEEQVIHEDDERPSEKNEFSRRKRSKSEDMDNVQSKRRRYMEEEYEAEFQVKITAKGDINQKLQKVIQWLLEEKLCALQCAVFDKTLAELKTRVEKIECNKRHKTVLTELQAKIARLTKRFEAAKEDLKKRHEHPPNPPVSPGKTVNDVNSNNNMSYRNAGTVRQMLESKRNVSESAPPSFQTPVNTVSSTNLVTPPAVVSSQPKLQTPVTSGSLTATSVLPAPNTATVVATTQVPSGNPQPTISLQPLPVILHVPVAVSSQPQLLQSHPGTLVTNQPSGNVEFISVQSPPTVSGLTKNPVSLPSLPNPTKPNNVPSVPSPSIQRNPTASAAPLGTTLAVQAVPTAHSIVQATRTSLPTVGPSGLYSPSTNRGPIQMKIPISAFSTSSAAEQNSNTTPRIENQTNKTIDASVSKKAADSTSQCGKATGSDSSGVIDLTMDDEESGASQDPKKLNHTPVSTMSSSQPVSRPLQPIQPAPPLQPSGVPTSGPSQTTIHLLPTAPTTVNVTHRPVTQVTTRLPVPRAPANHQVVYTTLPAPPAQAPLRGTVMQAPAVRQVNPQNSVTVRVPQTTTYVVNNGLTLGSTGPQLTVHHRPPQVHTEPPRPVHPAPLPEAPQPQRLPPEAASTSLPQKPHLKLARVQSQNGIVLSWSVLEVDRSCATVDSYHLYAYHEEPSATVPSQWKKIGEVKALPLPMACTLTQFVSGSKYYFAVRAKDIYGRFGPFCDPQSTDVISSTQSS
UniProt Q9H1I8: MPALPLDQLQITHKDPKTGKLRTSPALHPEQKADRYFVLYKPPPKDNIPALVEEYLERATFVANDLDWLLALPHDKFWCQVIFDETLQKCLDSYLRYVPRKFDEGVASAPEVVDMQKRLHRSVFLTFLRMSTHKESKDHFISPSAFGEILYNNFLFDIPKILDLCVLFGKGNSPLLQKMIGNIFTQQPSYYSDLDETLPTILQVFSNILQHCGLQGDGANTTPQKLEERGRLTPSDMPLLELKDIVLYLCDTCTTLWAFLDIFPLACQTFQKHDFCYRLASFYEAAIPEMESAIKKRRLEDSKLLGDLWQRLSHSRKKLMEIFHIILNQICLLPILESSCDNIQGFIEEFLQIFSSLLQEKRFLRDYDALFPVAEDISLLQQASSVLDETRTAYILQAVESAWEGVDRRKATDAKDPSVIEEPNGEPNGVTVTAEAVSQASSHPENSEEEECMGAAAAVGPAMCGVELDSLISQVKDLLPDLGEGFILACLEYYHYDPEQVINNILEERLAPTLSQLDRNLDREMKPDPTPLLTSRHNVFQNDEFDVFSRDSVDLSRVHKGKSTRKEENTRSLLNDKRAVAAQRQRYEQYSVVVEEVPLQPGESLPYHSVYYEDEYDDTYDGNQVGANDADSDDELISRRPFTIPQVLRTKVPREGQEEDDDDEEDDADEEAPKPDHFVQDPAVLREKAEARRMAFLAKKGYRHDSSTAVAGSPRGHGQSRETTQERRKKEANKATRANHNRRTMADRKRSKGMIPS
UniProt Q96KC2: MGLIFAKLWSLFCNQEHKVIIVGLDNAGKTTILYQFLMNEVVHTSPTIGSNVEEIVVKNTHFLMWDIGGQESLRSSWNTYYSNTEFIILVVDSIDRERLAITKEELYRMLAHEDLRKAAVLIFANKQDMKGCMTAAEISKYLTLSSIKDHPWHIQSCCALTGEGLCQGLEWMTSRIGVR
UniProt Q8NBU5: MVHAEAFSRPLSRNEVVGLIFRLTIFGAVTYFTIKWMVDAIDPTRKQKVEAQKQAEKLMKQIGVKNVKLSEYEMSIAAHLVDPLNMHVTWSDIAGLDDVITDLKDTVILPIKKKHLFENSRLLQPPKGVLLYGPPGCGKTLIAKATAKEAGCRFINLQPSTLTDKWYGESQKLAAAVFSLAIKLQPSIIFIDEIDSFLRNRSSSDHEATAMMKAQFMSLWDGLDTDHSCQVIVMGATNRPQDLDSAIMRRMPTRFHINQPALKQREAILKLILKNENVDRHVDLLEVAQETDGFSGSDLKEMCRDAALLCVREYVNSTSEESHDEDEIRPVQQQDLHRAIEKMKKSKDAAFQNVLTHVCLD
UniProt Q9NWL6: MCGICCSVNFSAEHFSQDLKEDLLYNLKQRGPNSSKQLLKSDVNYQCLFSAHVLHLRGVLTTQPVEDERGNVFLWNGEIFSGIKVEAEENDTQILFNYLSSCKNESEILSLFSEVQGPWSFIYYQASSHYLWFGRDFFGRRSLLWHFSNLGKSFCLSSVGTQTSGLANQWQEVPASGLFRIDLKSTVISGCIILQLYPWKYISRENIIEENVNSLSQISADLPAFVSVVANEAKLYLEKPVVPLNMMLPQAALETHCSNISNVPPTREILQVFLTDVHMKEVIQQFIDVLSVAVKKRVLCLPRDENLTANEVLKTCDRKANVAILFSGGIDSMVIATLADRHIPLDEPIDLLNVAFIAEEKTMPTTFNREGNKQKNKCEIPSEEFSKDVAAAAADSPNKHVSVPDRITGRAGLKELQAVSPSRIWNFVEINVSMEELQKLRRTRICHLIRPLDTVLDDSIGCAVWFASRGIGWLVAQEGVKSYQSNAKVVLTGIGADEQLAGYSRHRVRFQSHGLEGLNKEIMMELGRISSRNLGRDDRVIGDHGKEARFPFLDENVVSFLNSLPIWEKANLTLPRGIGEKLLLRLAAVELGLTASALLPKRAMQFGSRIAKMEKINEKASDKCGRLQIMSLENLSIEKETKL

Tests used:
Assay in all cases: log2 fold change, soluble protein after heating vs DMSO (PISA); higher = thermal stabilisation; K562 cells, 10 uM, 30 min; active = over 0.2 and 3.5 SD of the protein, either way, in both replicates (recomputed)
[1] = compound: C#Cc1cccc(Nc2ncnc3cc(OCCOC)c(OCCOC)cc23)c1 [erlotinib]
How it was run: (§1)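 K562 cells at 2×10^6 cells/mL were exposed to 10 μM compound for 30 min, then aliquots were heated for 3 min across 48°C-58°C, pooled, and extracted in PBS containing 0.5% NP-40 at 4°C. The supernatant after 21,000xg for 90 min was taken as soluble protein and measured by TMTpro 16plex LC-MS/MS with channel sums equalised. Thermal stability is reported relative to control samples, with values from duplicates. Fold changes are given on a log2 scale.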

[2] = compound: C/C(=N\NC(=O)C1=CC(=CC=C1)S(=O)(=O)N2CCOCC2)/C3=C(C=CC(=C3)Cl)O
How it was run: as §1

[3] = compound: C1=CC(=C(C=C1Cl)C2=NC3=NC=CN=C3C(=N2)NC4=CC=NC=C4)F
How it was run: as §1

[4] = compound: C1=CC(=CC=C1C2=NC3=C(N2)C=C(C=C3)C(=O)N)OC4=CC=C(C=C4)Cl
How it was run: as §1

[5] = compound: C1=CC2=C(C=CC(=C2)/C=C\3/C(=O)NC(=NCC4=CC=CS4)S3)N=C1
How it was run: as §1

[6] = compound: C1=CC2=NC=CN=C2C=C1/C=C/3\C(=O)NC(=O)S3
How it was run: as §1

[7] = compound: C1=CC=C(C=C1)C2=NC(=C(N2)C3=CC=NC=C3)C4=CC(=C(C=C4)Cl)O
How it was run: as §1

[8] = compound: C1=CC=C2C(=C1)C3=NNC4=CC=CC(=C43)C2=O
How it was run: as §1

[9] = compound: C1CCN(C1)C(=O)NC2=CC=CC(=C2)NC3=NC=C(C(=N3)NCCC4=CN=CN4)Br
How it was run: as §1

[10] = compound: C1CN(CCC1(CC2=CC=C(C=C2)Cl)N)C3=NC=NC4=C3C=CN4
How it was run: as §1

[11] = compound: C1COCCN1CCN2C3=CC=CC=C3N=C2NC(=O)C4=CC(=CC=C4)[N+](=O)[O-] [IRAK-1-4 Inhibitor I]
How it was run: as §1

[12] = compound: C=CC(=O)N1CCC[C@@H](n2nc(-c3ccc(Oc4ccccc4)cc3)c3c(N)ncnc32)C1 [ibrutinib]
How it was run: as §1

[13] = compound: CC(=O)c1cnc2ccc(-c3cc(Cl)c(O)c(Cl)c3)nc2c1N[C@H]1CC[C@H](CN(C)C)CC1
How it was run: as §1

[14] = compound: CC(C)(C)Cn1c(N)nc2ccc(-c3[nH]c(C(C)(C)C)nc3-c3ccc(F)cc3)nc21 [ralimetinib]
How it was run: as §1

[15] = compound: CC(C)(O)CC(=O)NCCn1ccc2ncnc(Nc3ccc(Oc4cccc(C(F)(F)F)c4)c(Cl)c3)c21
How it was run: as §1

[16] = compound: CC(C)C1=C2N=C(C=C(N2N=C1)NCC3=CC=CC=C3)NCCCCCCN
How it was run: as §1

[17] = compound: CC(C)C[C@@H](C=O)NC(=O)[C@H](CC(C)C)NC(=O)[C@H](CC(C)C)NC(=O)OCc1ccccc1
How it was run: as §1

[18] = compound: CC(C)N(C[C@H]1O[C@@H](n2cnc3c(N)ncnc32)[C@H](O)[C@@H]1O)[C@H]1C[C@@H](CCc2nc3cc(C(C)(C)C)ccc3[nH]2)C1 [pinometostat]
How it was run: as §1

[19] = compound: CC1=C(C2=C(C=C1)C(=O)C3=CC=CC=C3N2CCCN)C
How it was run: as §1

[20] = compound: CC1=C(C(CC(=O)N1)C2=CC=C(C=C2)C(F)(F)F)C(=O)NC3=C(C=C4C(=C3)C=NN4)F
How it was run: as §1

Row | Target | log2 fold change [1] | log2 fold change [2] | log2 fold change [3] | log2 fold change [4] | log2 fold change [5] | log2 fold change [6] | log2 fold change [7] | log2 fold change [8] | log2 fold change [9] | log2 fold change [10] | log2 fold change [11] | log2 fold change [12] | log2 fold change [13] | log2 fold change [14] | log2 fold change [15] | log2 fold change [16] | log2 fold change [17] | log2 fold change [18] | log2 fold change [19] | log2 fold change [20]
1 | ATP6V1H (UniProt Q9UI12) | inactive: -0.055 | inactive: 0.015 | inactive: 0.034 | inactive: 0.035 | inactive: -0.008 | inactive: 0.045 | inactive: -0.131 | inactive: 0.024 | inactive: -0.051 | inactive: -0.097 | inactive: -0.011 | inactive: -0.033 | inactive: -0.065 | inactive: 0.007 | inactive: -0.014 | active: -0.241 | inactive: 0.043 | inactive: -0.002 | inactive: 0.028 | –
2 | ASS1 (UniProt P00966) | inactive: 0.059 | active: 0.301 | inactive: -0.05 | inactive: 0.008 | inactive: -0.003 | inactive: 0.036 | inactive: 0.012 | inactive: 0.118 | inactive: 0.103 | inactive: -0.037 | – | inactive: 0.05 | inactive: -0.155 | inactive: -0.022 | inactive: -0.064 | inactive: -0.122 | inactive: 0.006 | – | inactive: -0.021 | –
3 | ATP6V0C (UniProt P27449) | inactive: -0.27 | inactive: -0.139 | inactive: -0.253 | inactive: 0.273 | inactive: -0.123 | inactive: 0.02 | – | inactive: 0.107 | inactive: -0.4 | inactive: 0.154 | – | inactive: 0.033 | inactive: -0.148 | – | inactive: 0.053 | inactive: -0.281 | – | – | inactive: -0.067 | inactive: -0.195
4 | ATG10 (UniProt Q9H0Y0) | inactive: -0.037 | – | inactive: 0.018 | inactive: 0.095 | – | inactive: 0.078 | – | – | inactive: 0.174 | inactive: -0.602 | – | inactive: -0.036 | – | – | inactive: 0 | inactive: -0.232 | – | – | inactive: -0.21 | inactive: 0.007
5 | ATP1B1 (UniProt P05026) | inactive: 0.033 | inactive: 0.054 | – | inactive: -0.043 | inactive: -0.063 | inactive: 0.08 | inactive: 0.065 | inactive: -0.049 | inactive: -0.121 | inactive: 0.01 | inactive: 0.028 | inactive: 0.021 | inactive: -0.017 | inactive: -0.028 | – | inactive: 0.161 | inactive: 0.058 | inactive: 0.026 | inactive: 0.044 | inactive: 0.085
6 | ATG14 (UniProt Q6ZNE5) | inactive: -0.037 | inactive: -0.042 | – | inactive: 0.158 | inactive: -0.277 | inactive: 0.216 | – | inactive: 0.21 | – | – | – | inactive: 0.061 | inactive: -0.16 | – | – | inactive: -0.066 | – | – | – | –
7 | ATP2B2 (UniProt Q01814) | inactive: -0.05 | inactive: 0.123 | – | inactive: 0.038 | inactive: -0.063 | – | – | inactive: 0.142 | – | – | – | – | inactive: -0.3 | – | – | inactive: 0.095 | – | – | – | –
8 | ARRB1 isoform 2 (UniProt P49407) | inactive: 0.009 | inactive: 0.066 | – | inactive: 0.061 | inactive: 0.046 | inactive: 0.12 | inactive: 0.029 | inactive: -0.14 | inactive: 0.058 | inactive: 0.087 | inactive: 0.052 | inactive: -0.056 | inactive: 0.03 | inactive: -0.069 | – | inactive: -0.007 | inactive: -0.047 | inactive: -0.032 | inactive: -0.048 | –
9 | ARL4A (UniProt P40617) | – | inactive: 0.009 | – | – | inactive: 0.35 | inactive: -0.053 | – | inactive: 0.047 | – | – | – | inactive: 0.143 | inactive: -0.295 | – | – | – | – | – | – | –
10 | ATP5IF1 (UniProt Q9UII2) | inactive: 0.001 | inactive: -0.122 | inactive: 0.032 | inactive: -0.005 | inactive: -0.104 | inactive: 0.007 | inactive: -0.051 | inactive: 0.153 | inactive: 0.053 | inactive: 0.032 | inactive: 0.121 | inactive: 0.012 | inactive: 0.018 | inactive: -0.1 | inactive: 0.099 | inactive: 0.056 | inactive: -0.048 | inactive: -0.06 | inactive: -0.006 | –
11 | ATE1 (UniProt O95260) | – | inactive: -0.229 | inactive: 0.05 | – | inactive: 0.227 | – | – | inactive: 0.129 | inactive: 0.027 | inactive: 0.029 | inactive: -0.133 | – | inactive: -0.016 | – | inactive: -0.422 | – | – | inactive: -0.313 | inactive: 0.172 | –
12 | ATP8B2 isoform 3 (UniProt P98198) | – | inactive: -0.349 | – | – | inactive: -0.176 | – | – | inactive: 0.116 | – | – | – | – | inactive: 0.231 | – | – | – | – | – | – | –
13 | ATPSCKMT (UniProt Q6P4H8) | inactive: 0.052 | inactive: 0.179 | inactive: 0.062 | inactive: -0.007 | inactive: -0.037 | inactive: 0.026 | – | inactive: 0.012 | inactive: -0.072 | inactive: 0.038 | – | inactive: -0.056 | inactive: 0.002 | – | inactive: -0.091 | inactive: 0.01 | – | – | inactive: -0.001 | inactive: 0.041
14 | ATF7IP isoform 4 (UniProt Q6VMQ6) | inactive: -0.004 | inactive: 0.111 | inactive: 0.012 | inactive: 0.06 | inactive: 0.059 | inactive: 0.073 | – | inactive: 0.023 | inactive: 0.183 | inactive: 0.127 | inactive: -0.15 | inactive: 0.126 | inactive: -0.448 | – | inactive: -0.35 | inactive: 0.09 | – | inactive: 0.219 | inactive: 0.032 | inactive: 0.227
15 | ASCC2 (UniProt Q9H1I8) | inactive: -0.033 | – | inactive: -0.05 | inactive: 0.021 | – | – | inactive: -0.01 | – | – | – | inactive: -0.005 | – | – | inactive: 0.041 | inactive: -0.144 | inactive: 0.022 | inactive: 0.297 | inactive: 0.24 | – | –
16 | ARL5B (UniProt Q96KC2) | inactive: 0.037 | inactive: 0.032 | inactive: 0.024 | inactive: -0.012 | inactive: 0.138 | inactive: 0.005 | – | inactive: 0.036 | inactive: 0.065 | inactive: -0.034 | – | inactive: -0.061 | inactive: -0.084 | – | inactive: -0.079 | inactive: 0.125 | – | – | inactive: 0.143 | inactive: -0.068
17 | ATAD1 (UniProt Q8NBU5) | inactive: 0.037 | inactive: 0.036 | active: 0.295 | inactive: 0.021 | inactive: 0.054 | inactive: -0.022 | inactive: 0.059 | inactive: 0.123 | inactive: 0 | inactive: -0.006 | inactive: -0.007 | inactive: 0.011 | inactive: -0.081 | active: 0.238 | inactive: -0.083 | inactive: -0.077 | inactive: 0.038 | inactive: 0.041 | inactive: 0.054 | –
18 | ASNSD1 (UniProt Q9NWL6) | – | – | inactive: 0.162 | – | – | inactive: -0.001 | – | – | – | – | inactive: 0.103 | inactive: -0.057 | – | – | inactive: -0.025 | – | – | inactive: -0.065 | – | inactive: -0.316

Record cards, from the list above. Values in the order: log2 fold change [1] | log2 fold change [2] | log2 fold change [3] | log2 fold change [4] | log2 fold change [5] | log2 fold change [6] | log2 fold change [7] | log2 fold change [8] | log2 fold change [9] | log2 fold change [10] | log2 fold change [11] | log2 fold change [12] | log2 fold change [13] | log2 fold change [14] | log2 fold change [15] | log2 fold change [16] | log2 fold change [17] | log2 fold change [18] | log2 fold change [19] | log2 fold change [20]
ATE1 (UniProt O95260) is listed with – | inactive: -0.229 | inactive: 0.05 | – | inactive: 0.227 | – | – | inactive: 0.129 | inactive: 0.027 | inactive: 0.029 | inactive: -0.133 | – | inactive: -0.016 | – | inactive: -0.422 | – | – | inactive: -0.313 | inactive: 0.172 | –
ATP8B2 isoform 3 (UniProt P98198) is listed with – | inactive: -0.349 | – | – | inactive: -0.176 | – | – | inactive: 0.116 | – | – | – | – | inactive: 0.231 | – | – | – | – | – | – | –
